These are yes or no findings as the source states them, for the method shown. In cells and extracts the contact can be indirect. Some results given as binding are weak or reduced against the parent protein; the word gives no strength.
Columns and labels:
[1] = target: AR-FL as GST protein (GST pull-down of Figure 5G-H) (UniProt P10275); assay: pull-down; GST pull-down: in vitro-translated HA- or His-tagged proteins incubated with GST proteins in the presence or absence of BCT; bound proteins detected by immunoblot with anti-HA or anti-His antibody; only the target purified
[2] = target: AR-V7 as GST protein (GST pull-down of Figure 5G-H) (UniProt P10275); assay: as above

Chains of the proteins cited; added tags and fusions are not shown. Lines headed by an entry give the natural chain unless they say otherwise; changes in a name come on top. A line that says so, or that is headed by a name, gives the form on record, which may keep a tag or linker.
UniProt P10275: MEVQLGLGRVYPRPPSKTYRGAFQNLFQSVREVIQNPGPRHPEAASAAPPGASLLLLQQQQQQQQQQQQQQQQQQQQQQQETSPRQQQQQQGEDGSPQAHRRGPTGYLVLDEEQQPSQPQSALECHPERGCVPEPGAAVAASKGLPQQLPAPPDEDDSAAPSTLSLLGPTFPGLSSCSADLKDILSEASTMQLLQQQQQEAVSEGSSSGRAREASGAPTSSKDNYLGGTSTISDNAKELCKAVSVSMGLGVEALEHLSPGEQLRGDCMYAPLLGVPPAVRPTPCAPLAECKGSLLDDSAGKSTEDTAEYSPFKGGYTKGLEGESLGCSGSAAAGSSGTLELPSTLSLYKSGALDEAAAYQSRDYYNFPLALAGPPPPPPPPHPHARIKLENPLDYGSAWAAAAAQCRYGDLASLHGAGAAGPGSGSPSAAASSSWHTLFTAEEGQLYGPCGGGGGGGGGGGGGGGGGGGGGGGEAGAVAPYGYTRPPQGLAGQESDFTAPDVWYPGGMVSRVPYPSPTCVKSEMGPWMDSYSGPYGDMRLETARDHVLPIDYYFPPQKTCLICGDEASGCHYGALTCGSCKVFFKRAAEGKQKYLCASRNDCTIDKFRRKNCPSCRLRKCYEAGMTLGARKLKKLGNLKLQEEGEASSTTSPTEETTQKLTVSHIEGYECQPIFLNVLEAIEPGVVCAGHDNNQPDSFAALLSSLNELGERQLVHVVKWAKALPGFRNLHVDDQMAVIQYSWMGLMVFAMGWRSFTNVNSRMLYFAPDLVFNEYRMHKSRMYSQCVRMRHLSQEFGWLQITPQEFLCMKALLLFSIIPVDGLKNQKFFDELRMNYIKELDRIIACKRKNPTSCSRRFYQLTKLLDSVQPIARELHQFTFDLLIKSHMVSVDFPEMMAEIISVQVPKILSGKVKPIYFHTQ
AR-V7 as GST protein (GST pull-down of Figure 5G-H) (P10275, form named): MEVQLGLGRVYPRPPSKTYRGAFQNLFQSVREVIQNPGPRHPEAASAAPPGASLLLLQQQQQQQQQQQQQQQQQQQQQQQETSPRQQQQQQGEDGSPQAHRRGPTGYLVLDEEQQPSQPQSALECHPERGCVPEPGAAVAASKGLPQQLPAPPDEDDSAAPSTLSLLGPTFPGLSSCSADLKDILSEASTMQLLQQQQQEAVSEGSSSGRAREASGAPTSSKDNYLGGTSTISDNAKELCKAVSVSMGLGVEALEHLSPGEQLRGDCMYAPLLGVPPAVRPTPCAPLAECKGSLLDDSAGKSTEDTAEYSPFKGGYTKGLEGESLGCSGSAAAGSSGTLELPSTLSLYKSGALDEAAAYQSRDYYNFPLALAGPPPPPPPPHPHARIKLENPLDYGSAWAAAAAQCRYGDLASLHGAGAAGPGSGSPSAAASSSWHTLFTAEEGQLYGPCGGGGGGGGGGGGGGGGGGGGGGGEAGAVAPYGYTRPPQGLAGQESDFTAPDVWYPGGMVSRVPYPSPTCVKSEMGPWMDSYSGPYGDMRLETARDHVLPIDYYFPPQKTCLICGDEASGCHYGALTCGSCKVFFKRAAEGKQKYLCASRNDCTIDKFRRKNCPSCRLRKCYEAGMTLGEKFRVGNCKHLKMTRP
UniProt Q9UNE7: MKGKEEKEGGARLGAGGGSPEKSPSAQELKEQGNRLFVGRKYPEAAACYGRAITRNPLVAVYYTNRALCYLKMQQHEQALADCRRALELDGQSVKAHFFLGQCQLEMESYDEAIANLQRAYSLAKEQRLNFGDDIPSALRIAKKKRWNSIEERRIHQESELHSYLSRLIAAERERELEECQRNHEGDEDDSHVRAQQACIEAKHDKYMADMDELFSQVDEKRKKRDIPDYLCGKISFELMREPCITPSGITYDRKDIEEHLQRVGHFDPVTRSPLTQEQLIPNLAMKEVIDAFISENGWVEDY

- binding [1]: binds
- binding [2]: binds
Substance: His-CHIP, in vitro-translated (from UniProt Q9UNE7 1-303)

Reference: publication PMC7738850
